# ± gives the standard deviation of the averaged measurements. Whole data set: some 3,800 compounds, median “cell shape (eccentricity) Z-score vs DMSO control” near 1.1, cut for the lowest 2% near -4.7. Some of the results follow.
# System: human monocyte-derived macrophages (M0)
# Experiment: cell shape (eccentricity) Z-score vs DMSO control; higher = more elongated, M2-like morphology
# Details: 20 µM; 24 h; macrophage state: M0 (M-CSF)
row,SMILES,cell shape (Z-score)
1,Cn1cc(C(F)(F)F)nc1-c1ccc(OCC(O)CNCCOc2ccc(O)c(C(N)=O)c2)cc1 (centres undefined),0.145
2,COc1cc(-c2oc3cc(O)cc(O)c3c(=O)c2O[C@@H]2O[C@H](CO[C@@H]3O[C@@H](C)[C@H](O)[C@@H](O)[C@H]3O)[C@H](O)[C@H](O)[C@H]2O)ccc1O,1.63
3,Cc1[nH]c(/C=C2\C(=O)Nc3ccc(S(=O)(=O)Cc4c(Cl)cccc4Cl)cc32)c(C)c1C(=O)N1CCC[C@@H]1CN1CCCC1,-0.195
4,N[C@H](Cc1cc(I)c(Oc2ccc(O)c(I)c2)c(I)c1)C(=O)O,2.64
5,COc1cc(O)c(C(=O)c2ccccc2)cc1O,-1.52
6,CCN(CC)CCNC(=O)c1ccc(NC(C)=O)cc1,-0.33
7,CC1(CN2CCC(n3c(=O)[nH]c4ccccc43)CC2)OCc2ccccc2-n2cccc21 (centres undefined),0.719
8,COc1ccc2ccc(=O)oc2c1CC(O)C(C)(C)OC (centres undefined),3.41
9,COc1cc(O[C@@H]2O[C@H](CO[C@H]3OC[C@](O)(COC(=O)c4ccc(O)c(OC)c4)[C@H]3O)[C@@H](O)[C@H](O)[C@H]2O)ccc1O,-2.77
10,CC1(C)S[C@@H]2[C@H](NC(=O)[C@H](N)c3ccccc3)C(=O)N2[C@H]1C(=O)O,-1.1
11,COc1ccccc1C1(O)CCN(CCCn2c3ccccc3c3ccccc32)CC1,-0.844
12,Cc1ncc([N+](=O)[O-])n1CC(C)O (centres undefined),2.31
13,COc1cc(-c2oc3cc(O)c(OC)c(O)c3c(=O)c2O[C@@H]2O[C@H](CO[C@@H]3O[C@H](CO)[C@@H](O)[C@H](O)[C@H]3O)[C@@H](O)[C@H](O)[C@H]2O[C@@H]2OCC(O)(CO)[C@H]2O)ccc1O (some centres undefined),1.02
14,O=C(O)C(O)Cc1c[nH]c2ccccc12 (centres undefined),-0.763 ± 1.3
15,CC(C)(C)c1ccc2cc(C#N)c(C#N)cc2c1,-0.135
16,c1ccc(C(NCCNC(c2ccccc2)c2ccccc2)c2ccccc2)cc1,2.99
17,NS(=O)(=O)c1cc2c(cc1Cl)N=C(CSCc1ccccc1)NS2(=O)=O,3.11
18,COc1ccc(/C=C/C(=O)O[C@@H]2[C@@H](OC(C)=O)[C@@H](OC(C)=O)[C@H](O[C@H]3[C@@H]4C=CO[C@@H](O[C@@H]5O[C@H](CO)[C@@H](O)[C@H](O)[C@H]5O)[C@@H]4[C@@]4(CO)O[C@@H]34)O[C@H]2C)cc1,2.5
19,C[C@@H](NC(=O)C[C@@H]1CC[C@@H](NC(=O)CN2CCOCC2)[C@H](CO)O1)c1ccccc1,0.746
20,CCOC(=O)C1=C(C)NC(C)=C(C(=O)OC)C1c1cccc([N+](=O)[O-])c1 (centres undefined),1.64
21,Cc1nc(=O)c2c([nH]1)CCSC2,1.44
22,COc1ccc(CCN(C)CCc2ccc(OC)c(OC)c2)cc1OC,3.04
23,C[C@@H]1O[C@@H](O[C@H]2[C@@H](Oc3cc(O)c4c(c3)O[C@H](c3ccc(O)cc3)CC4=O)O[C@H](CO)[C@@H](O)[C@@H]2O)[C@H](O)[C@H](O)[C@H]1O,2.15
24,CN1CC(=O)N2[C@H](c3ccc4c(c3)OCO4)c3[nH]c4ccccc4c3C[C@@H]2C1=O,-0.3
25,C=Cc1ccc(O[C@@H]2O[C@H](CO)[C@@H](O)[C@H](O)[C@H]2O[C@@H]2O[C@@H](C)[C@H](O)[C@@H](O)[C@H]2O)cc1,1.75
26,CC(C)c1ccc2c(c1)CCC1[C@](C)(C(=O)O)CCC[C@]21C (some centres undefined),2.33 ± 4.4
27,CC1CC(=O)C2=C(C1)C(Cl)C(O)C1(O)C2C(=O)c2cccc(O)c2C1O (centres undefined),1.54 ± 0.099

# Structural class: the compounds so far containing a Cl atom (3)
row,SMILES,cell shape (Z-score)
3,Cc1[nH]c(/C=C2\C(=O)Nc3ccc(S(=O)(=O)Cc4c(Cl)cccc4Cl)cc32)c(C)c1C(=O)N1CCC[C@@H]1CN1CCCC1,-0.195
17,NS(=O)(=O)c1cc2c(cc1Cl)N=C(CSCc1ccccc1)NS2(=O)=O,3.11
27,CC1CC(=O)C2=C(C1)C(Cl)C(O)C1(O)C2C(=O)c2cccc(O)c2C1O (centres undefined),1.54 ± 0.099

# Additional records follow:

row,SMILES,cell shape (Z-score)
1,COc1cc(C(=O)NCc2ccc(OCCN(C)C)cc2)cc(OC)c1OC,2.65
2,CSc1cc2c(cc1C(F)(F)F)N(C(=O)Nc1cccnc1)CC2,3.3
3,CN(C)CC[C@H](c1ccc(Cl)cc1)c1ccccn1,-0.907
4,Nc1ccc(S(=O)(=O)Nc2cnc3ccccc3n2)cc1,-2.7
5,CCCCCC/C=C\CCCCCCCc1cccc(O)c1C(=O)O,0.731 ± 1.7
6,Cc1sc(N)c(C(=O)c2cccc(C(F)(F)F)c2)c1C,0.163
7,COc1cc(C2c3c(cc(OC)c(O)c3O)CC(CO)C2CO[C@@H]2O[C@H](C(=O)O)[C@@H](O)[C@H](O)[C@H]2O)cc(OC)c1O (some centres undefined),2
8,CC(OC(=O)c1cccc(O)c1)C(=O)O (centres undefined),2.46
9,C[C@]12CCC(=O)C=C1CC[C@@H]1C2[C@@H](O)C[C@@]2(C)C1CC[C@@H]2C(=O)CO (some centres undefined),-0.0908
10,COc1cc(C(=O)OCCCN2CCCN(CCCOC(=O)c3cc(OC)c(OC)c(OC)c3)CC2)cc(OC)c1OC,0.827 ± 1.5
11,CCc1cnn2c(NCc3ccc[n+]([O-])c3)cc(N3CCCC[C@H]3CCO)nc12,7
12,CCCCC(=O)O[C@]1(C(=O)CO)[C@@H](C)CC2C3CCC4=CC(=O)C=C[C@]4(C)[C@@]3(F)C(O)C[C@@]21C (some centres undefined),-2.07
13,CC(C)=CC1C(C(=O)O)C1(C)C (centres undefined),2.13
14,NC(=NC(=O)c1nc(Cl)c(N)nc1N)NCc1ccccc1,1.1
15,CC1(C)CC[C@]2(C(=O)O[C@@H]3O[C@H](CO)[C@@H](O)[C@H](O)[C@H]3O)CC[C@]3(C)C(=CCC4[C@@]5(C)CC[C@H](OC6O[C@H](CO)[C@@H](O)[C@H](O[C@@H]7O[C@H](CO)[C@@H](O)[C@H](O)[C@H]7O)[C@H]6O)C(C)(C)C5CC[C@]43C)[C@@H]2C1 (some centres undefined),-0.36 ± 0.054
16,O=C(O)CCCC=CCC1COC(C(F)(F)F)OC1c1ccccc1O (centres undefined),0.695
17,C=C1C(=O)O[C@@H]2CC=C(CCC(C)O)C(C)C[C@@H]12 (some centres undefined),1.71 ± 3.5
18,C[C@H]1[C@H](C)CC[C@]2(C(=O)O)CC[C@]3(C)C(=CCC4[C@@]5(C)C[C@@H](O)[C@H](O)[C@@](C)(CO)C5[C@H](O)C[C@]43C)[C@H]12 (some centres undefined),-0.92
19,CCOc1ccc2ccccc2c1NC(=O)[C@@H]1C(=O)N2C(C(=O)O)C(C)(C)S[C@H]12 (some centres undefined),1.89
20,Clc1ccccc1CN1CCc2sccc2C1,3.16
21,COc1c(-c2ccccc2)oc2c(OC)c(O)cc(O)c2c1=O,3.67
22,Nc1ccc(S(=O)(=O)Nc2nccs2)cc1,4.41
23,CC1=COC(O[C@@H]2O[C@H](CO)[C@@H](O)[C@H](O)[C@H]2O)C2C1CC(O)C2CO (some centres undefined),-1.3
24,COc1cc([C@H]2OC[C@H]3[C@@H]2CO[C@H]3c2ccc(OC)c(OC)c2)ccc1O,-0.964
25,O=C(Cc1ccccc1)NO,0.486
26,O=C(NC1CC1)c1cc(-c2cccs2)on1,-1.73
27,CC1(C)CC[C@]2(C(=O)O[C@@H]3O[C@H](CO)[C@@H](O)[C@H](O)[C@H]3O)CC[C@]3(C)C(=CCC4[C@@]5(C)C[C@H](O)[C@H](O[C@@H]6O[C@H](C(=O)O)[C@@H](O)[C@H](O)[C@H]6O)[C@@](C)(CO)C5CC[C@]43C)C2C1 (some centres undefined),0.273

row,SMILES,cell shape (Z-score)
1,COc1cc(O)cc2c1C(=O)OC(C)C2 (centres undefined),3.06
2,O=C1Nc2ccc(Br)cc2/C1=C/c1cc2c([nH]1)CCCC2,1.17
3,CC(=O)Nc1cccc(-n2c(=O)n(C3CC3)c(=O)c3c(Nc4ccc(I)cc4F)n(C)c(=O)c(C)c32)c1,-0.597
4,CC(=O)OCC(=O)[C@@]1(O)CCC2C3CCC4=CC(=O)C=C[C@]4(C)[C@@]3(F)[C@@H](O)C[C@@]21C (some centres undefined),-1.89
5,OC1c2ccccc2-c2c3c(cc4c2C1NCC4)OCO3 (centres undefined),-3.26
6,CN(CCc1ccc(Cl)c(Cl)c1)CC(O)COc1ccc(NS(C)(=O)=O)cc1 (centres undefined),3.03
7,C[C@H]1CN([C@@H](C)CO)C(=O)Cc2cc(NC(=O)CCC(F)(F)F)ccc2O[C@H]1CN(C)S(=O)(=O)c1ccc(Cl)cc1,-3.66
8,CC1(C)CC[C@]2(C(=O)O)CC[C@]3(C)C(=CCC4[C@@]5(C)C[C@@H](O)[C@H](O)[C@@](C)(CO)C5CC[C@]43C)[C@@H]2[C@@H]1O (some centres undefined),-1.63
9,C[C@@H](NC(=O)c1ncnc(N)c1Cl)c1ncc(C(=O)Nc2cc(C(F)(F)F)c(Cl)cn2)s1,2.02
10,CCc1cc(Cl)c(OC)c(C(=O)NC[C@@H]2CCCN2CC)c1O,1.6
11,O=C(CCc1ccccc1)CC(CCc1ccccc1)OC1OC(COC2OC(CO)C(O)C(O)C2O)C(O)C(O)C1O (centres undefined),0.466
12,CCCCNC(=O)c1ccc(Cl)cc1O,0.898
13,COc1c(O[C@@H]2O[C@H](C(=O)O)[C@@H](O)[C@H](O)[C@H]2O)cc(O)c2c(=O)cc(-c3ccccc3)oc12,-0.141
14,COc1cc2oc(-c3ccccc3)cc(=O)c2c(OC)c1OC,3.62
15,CC(CC[C@]1(C)C2CCC=C(CO)[C@]2(C)CC[C@H]1C)CC(=O)O (some centres undefined),-0.00807
16,CCCn1c(=O)c2nc(C3CCCC3)[nH]c2n(CCC)c1=O,3.19
17,C[C@@H]1CN([C@@H](C)CO)C(=O)c2cccc(NC(=O)Nc3ccccc3)c2O[C@@H]1CN(C)Cc1ccc(C(=O)Nc2ccccc2N)cc1,-3.29
18,CC(=O)CCC1C2C(O)C(C(C)C)C(OC(=O)/C=C/c3ccccc3)CC12C (centres undefined),1.95
19,CC1CC(=O)C2=C(CCC3(O)C2C(=O)c2cccc(O)c2C3O)C1 (centres undefined),2.98
20,C[C@@H]1O[C@@H](O[C@H]2[C@H](O[C@H]3CC[C@@]4(C)C(CC[C@]5(C)C4CC=C4C6CC(C)(C)CC[C@]6(C(=O)O[C@@H]6O[C@H](CO[C@@H]7O[C@H](CO)[C@@H](O[C@@H]8O[C@@H](C)[C@H](O)[C@@H](O)[C@H]8O)[C@H](O)[C@H]7O)[C@@H](O)[C@H](O)[C@H]6O)CC[C@]45C)[C@]3(C)CO)OC[C@H](O)[C@@H]2O)[C@H](O)[C@H](O)[C@H]1O (some centres undefined),-1.37
21,C=C1/C(=C\C=C2/CCC[C@]3(C)[C@@H]([C@H](C)/C=C/[C@@H](O)C4CC4)CC[C@@H]23)C[C@@H](O)C[C@@H]1O,-1.82
22,Cn1cc(C(=O)OCC2CCN(CCNS(C)(=O)=O)CC2)c2ccccc21,4.04
23,CCCCC(=O)N(Cc1ccc(-c2ccccc2-c2nn[nH]n2)cc1)[C@H](C(=O)O)C(C)C,4.67
24,Nc1ccc(C(=O)Oc2ccccc2)c(O)c1,0.623
25,O=C(/C=C/c1cccc(S(=O)(=O)Nc2ccccc2)c1)NO,6.89
